We go through 2 molecules from patent publication US20040019926A1 (CROPDESIGN N V, published 2004).

Protein sequences, listed by entry. Tags and fused reporters are not part of them.
UniProt P29618: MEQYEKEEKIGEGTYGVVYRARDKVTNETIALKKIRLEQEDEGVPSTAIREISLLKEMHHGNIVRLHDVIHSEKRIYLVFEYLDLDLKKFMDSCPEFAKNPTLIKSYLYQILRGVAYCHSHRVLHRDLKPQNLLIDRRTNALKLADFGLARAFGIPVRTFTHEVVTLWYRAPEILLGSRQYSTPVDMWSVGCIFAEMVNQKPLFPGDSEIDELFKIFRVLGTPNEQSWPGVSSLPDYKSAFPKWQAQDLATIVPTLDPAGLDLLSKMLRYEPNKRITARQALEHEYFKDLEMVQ

Experiment [1] concerns the target T1, rice cyclin-dependent kinase Cdc2-Os1 (rice, UniProt P29618 1-294).
T1 construct: The Gal4 parts are not written into the chain
Briefly: yeast two-hybrid library screen of Example 4, Cdc2-Os1 bait.

Experiment [2] addresses T1, rice cyclin-dependent kinase Cdc2-Os1. Briefly: yeast two-hybrid library screen, Cdc2-Os1 bait (pBD-Gal4), growth on SD-TLH, SD-TLA and SD-TLAH.
Experiment [3] shares this target. Briefly: yeast two-hybrid, reciprocal orientation: OsICK2 bait (pBDGal4), Cdc2-Os1 prey (pADGal4).
Experiment [4] shares this target. Briefly: yeast two-hybrid, Cdc2-Os1 bait (pBDGal4), OsICK2 prey (pADGal4), growth on Leu-Trp-His- medium.

No constants are given. Whether binding was seen depends on the method and setting. Some binding calls cover weakened binding; strength is not graded here.

B1: partial OsICK4 clone obtained by two-hybrid screening (missing the 5' end) (protein)
chain: PRRRATAAAATADATATESAEAEVSFGGENVLELEAMERNTRETTPCSLIRDPDTISTPGSTTRRSHSSSHCKVQTPVRHNIIPASAELEAFFAAEEQRQRQAFIDKYNFDPVNDCPLPGRFEWVKLD
Turning to B1, the binding result in experiment [1] and in experiment [2] was “binds” each time.

B2: full-length rice OsICK2 protein (protein)
chain: MGKYMRKFRGATGEELAAMEVTQVVGVRTRSRSAAAAGATTTKVQAASAASTRRRKALLPTAVVGTTRRDGGSCYLQLRSRMLFMAPPRPAPAARAPVVAEAAGSGNGAAAHAAAGLSRCSSTASSVDAAAQDRSLACRSDVAEAGSEHVPEGSASDSASGRDRERRETTPSSFLPGEVSDLESDLAGGQKRSRPLPSAATASAQQATRPKIPPAAEIEAFFAAAEEAEAKRFAAKYNFDVVRGVPLDAGRFEWTPVVSSRS
Take B2: the binding result in experiment [3] and in experiment [4] was “binds” in each case.
